Laboratory results from patent publication US20120116084A1, “N-TYPE ORGANIC SEMICONDUCTORS INCLUDING AT LEAST TWO 2-DICYANOMETHYLENE-3-CYANO-2,5-DIHYDROFURAN GROUPS” (COMMISARIAT A L'ENERGIE ATOMIQUE ET AUX ENE ALT, priority 2009, published 2012).

Assay: Electrical characterization in air of field-effect transistors made with the molecules (bottom-gate bottom-contact geometry)
Conditions: field-effect transistor of Example 6, bottom-gate bottom-contact
Protocol: Various field-effect transistors were manufactured and especially, by way of example, in the following manner (bottom-gate bottom-contact geometry): • sonication of a chip (1 cm×1 cm) comprising transistors bearing linear or interdigitated units (channel width W of 1000 to 10 000 pm and channel length L of 2 to 200 μm) in acetone for 3 minutes followed by rinsing with isopropanol and drying with argon, • UV/ozone treatment for 45 minutes, • formation of a self-assembled layer in the channels by dipping the chip in a solution of octyltrichlorosilane in toluene (10^−3 M) for 4 hours at 80° C., • deposition of the n-type semiconductor via one of the methods mentioned previously, • release of the electrodes from the transistors by means of an organic solvent belonging to the list presented in the description of the invention, • annealing at 100° C. for 20 minutes, • establishment of the electrical contacts and especially of the bottom-gate electrode, • annealing at 100° C. for 5 minutes.
The field-effect transistors obtained in Example 6 were tested.
Their mobility and Ion/Ioff ratio values, determined by electrical characterization in air, are as follows: • n-type semiconductor of Example 1: 3×10^−5 cm^2. V^−1. s^−1 and 2×10^2, • n-type semiconductor of Example 2: 3×10^−4 cm^2. V^−1. s^−1 and 3×10^3, • n-type semiconductor of Example 3: 1×10^−4 cm^2. V^−1. s^−1 and 8×10^2, • n-type semiconductor of Example 4: 6×10^−3 cm^2. V^−1. s^−1 and 8×10^4, • n-type semiconductor of Example 5: 8×10^−4 cm^2. V^−1. s^−1 and 9×10^2,

Row | Structure (SMILES) | Ion/Ioff ratio | mobility
1 | CC1(C)OC(=C(C#N)C#N)C(C#N)=C1/C=C/c1ccc(/C=C/C2=C(C#N)C(=C(C#N)C#N)OC2(C)C)cc1 [Example 1] | 2×10^2 | 3×10^−5 cm^2. V^−1. s^−1
2 | CC1(C)OC(=C(C#N)C#N)C(C#N)=C1/C=C/c1ccc(-c2c3ccccc3c(-c3ccc(/C=C/C4=C(C#N)C(=C(C#N)C#N)OC4(C)C)cc3)c3ccccc23)cc1 [Example 2] | 3×10^3 | 3×10^−4 cm^2. V^−1. s^−1
3 | CC1(C)OC(=C(C#N)C#N)C(C#N)=C1/C=C/c1ccc(/C=C/C2=C(C#N)C(=C(C#N)C#N)OC2(C)C)c([N+](=O)[O-])c1 [Example 3] | 8×10^2 | 1×10^−4 cm^2. V^−1. s^−1
4 | CC1(C)OC(=C(C#N)C#N)C(C#N)=C1/C=C/c1ccc(/C(C#N)=C/c2sc(-c3cc(C#N)c(/C=C(\C#N)c4ccc(/C=C/C5=C(C#N)C(=C(C#N)C#N)OC5(C)C)s4)s3)cc2C#N)s1 [Example 5] | 9×10^2 | 8×10^−4 cm^2. V^−1. s^−1
